# Data from PubChem BioAssay AID687031 (Broad Institute, 2013).
# In all, about 1,400 compounds went through this assay and about 50 (4%) were called active.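 Rule for the calls: active = fitted curve reaches 30% CPE protection at or below the top valid dose, with every test run called active; inconclusive = test runs disagree, some active and some not; inactive = every test run inactive, including effects in the wrong direction.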 Some of the results follow. Entries with a potency or affinity are not part of this list.
# Assay: antiviral rescue of DENV2-infected BHK-21 cells – cell-based, ATP luminescence, cherry-pick, dose response (AID 687031);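 note: 0% = infected DMSO wells and 100% = uninfected cell wells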
# Details: BHK-21 DENV2 CPE protection, 5 d; at 19.5 µM (top of the series) unless noted
row,Structure (SMILES),CPE protection (higher = active)
1,C[C@H](CO)N1C[C@H](C)[C@@H](CN(C)C(=O)Nc2cccc3ccccc23)OCCCC[C@H](C)Oc2ccc(NC(=O)NC3CCCCC3)cc2C1=O,inactive: 3.1%
2,Cc1ccccc1S(=O)(=O)NC(=O)C1(C)CCN1C(=O)CC(c1ccccc1)c1ccccc1 (stereo unspecified),inactive: 8.27%
3,C[C@@H]1CCCCO[C@H](CN(C)C(=O)Nc2ccc(C(F)(F)F)cc2)[C@H](C)CN([C@@H](C)CO)C(=O)c2cc(NS(=O)(=O)c3ccc(F)cc3)ccc2O1,inactive: 15.1%
4,CCn1c(SCc2cccc(F)c2)nnc1-c1ccncc1,inactive: -13.2%
5,COc1cc(OC)cc(C(=O)NCCC(c2ccccc2)c2ccccc2)c1,inactive: -16.4%
6,O=C(NCc1ccc(Cl)c(Cl)c1)c1cc(C2CCCCN2C(=O)OCCF)on1 (stereo unspecified),inactive: 13.3%
7,OC[C@@H]1[C@@H](c2ccccc2)C2(CN(Cc3nccs3)C2)N1Cc1cccnc1,inactive: -2.78%
8,COc1ccc(C2(C)CC(C)(C)Nc3ccccc32)cc1 (stereo unspecified),inactive: 24.1%
9,Cc1ccccc1CN1C(=O)CN(S(C)(=O)=O)CC1(C)C(=O)NCc1ccccc1 (stereo unspecified),inactive: -24.2%
10,CCN(Cc1ccc(OC)c(COC)c1)CC1CCCN(CCc2cccc(OC)c2)C1 (stereo unspecified),inactive: 27.2%
11,COc1ccc(C(=O)NCCNc2nc3c(C)cccc3cc2C#N)cc1OC,inactive: -3.71%
12,Cc1ccc(OCC(=O)NC2CCSc3ccccc32)cc1 (stereo unspecified),inactive: -2.69%
13,COc1ccc2c(c1)OC[C@H]1[C@H]2N2C(=O)c3cc(OC)ccc3NC(=O)[C@@]2(C)[C@H]1c1ccccc1,inactive: -19.2%
14,CCN(C)C1CN(Cc2cn(Cc3ccc(F)cc3)nn2)S(=O)(=O)C1 (stereo unspecified),inactive: -3.5%
15,CCOC(=O)Nc1ccc(N2CCOCC2)c(S(=O)(=O)N2CCOCC2)c1,inactive: 10.6%
16,Cc1ccc(C(=O)Nc2ccc(CN3CCCCC3)cc2)c(C)c1,inactive: 11.5%
17,CCOc1ccc(Oc2nc(NCC(C)C)nc(OC)n2)nn1,inactive: -24.7%
18,CC1CCCCN1CCCNC(=O)c1ccc2nc(N3CCCCC3)sc2c1 (stereo unspecified),inactive: 16.9%
19,N#CC[C@H](c1ccccc1)N1CCN(Cc2ccccc2)CCC1=O,inactive: 27.4%
20,CC1(C(=O)NS(C)(=O)=O)CCN1C(=O)C/C=C/c1ccccc1 (stereo unspecified),inactive: 8.98%
21,COc1cccc(NC(=O)COc2cccc3c2CCNC3=O)c1,inactive: -1.74%
22,CCc1c(C2CC2)ncn1Cc1cccc(-c2ccccc2)c1,inactive: 22.2%
23,CC(C)CNC(=O)C1(C)CCCN1C(=O)c1cncc(Br)c1 (stereo unspecified),inactive: 3.91%
24,CO[C@@H]1CN(C)C(=O)c2ccc(NC(=O)Nc3cccc(F)c3)cc2OC[C@@H](C)N(C(C)=O)C[C@H]1C,inactive: -13%
25,O=C1CCN(CCc2ccccc2)CCN1[C@H](COc1ccccc1)c1ccccc1,inactive: -22.3%
26,CC(C)(O)C#Cc1ccc([C@@H]2[C@@H](CO)N3CCCCN(C(=O)c4ccc(F)cc4)C[C@@H]23)cc1,inactive: -12.7%

# Laid out differently: results already given
row | Structure (SMILES) | CPE protection (higher = active)
16 | Cc1ccc(C(=O)Nc2ccc(CN3CCCCC3)cc2)c(C)c1 | inactive: 11.5%
17 | CCOc1ccc(Oc2nc(NCC(C)C)nc(OC)n2)nn1 | inactive: -24.7%

# Following part.

row,Structure (SMILES),CPE protection (higher = active)
1,CSCCC(N=C1NS(=O)(=O)c2ccccc21)C(=O)NCCc1ccccc1 (stereo unspecified),inactive: 18.1%
2,C[C@@H]1CCCCO[C@H](CN(C)S(=O)(=O)c2ccccc2)[C@@H](C)CN([C@@H](C)CO)C(=O)c2cc(NC(=O)CCCN(C)C)ccc2O1,inactive: 5.11%
3,COc1ccc(/C=N/NC(=O)c2nc(-c3ccccc3)n(-c3ccccc3)n2)cc1OC,inactive: 6.48%
4,Fc1ccccc1-c1nc(-c2ccc(-c3nn[nH]n3)cc2)no1,inactive: -17%
5,COc1ccc(N(CC(=O)N2CCN(C)CC2)S(=O)(=O)c2cc(C)ccc2OC)cc1Cl,inactive: 2.48%
6,CC(=O)N[C@@H]1CC[C@H](CCNC(=O)C2CCCC2)O[C@H]1CO,inactive: -7.17%
7,CC(C)CN1CCCC(N2CCN(c3cccc(Cl)c3)CC2)C1 (stereo unspecified),inactive: 13.2%
8,COc1ccccc1N(CC(=O)N1CCCC1)S(=O)(=O)c1ccc(C)cc1,inactive: -2.22%
9,COc1cccc(OC)c1C(=O)N1CCN(Cc2c[nH]c3ccccc23)CC1,inactive: 0.286%
10,Cc1cccc(OCCn2c(=O)n(C)c3ccccc32)c1,inactive: -10.2%
11,CCN(C[C@H]1N[C@@](C)(C(=O)OC)[C@H]2C(=O)N(C)C(=O)[C@@H]12)S(=O)(=O)c1ccc(-c2ccccc2)cc1,inactive: 11.6%
12,COc1ccc(NC(=O)C2CCC(CNS(=O)(=O)c3cccs3)CC2)cc1OC (stereo unspecified),inactive: 1.38%
13,COC(=O)Cc1ccc(OC2(C)CCN(Cc3csc4ccccc34)C2)cc1 (stereo unspecified),inactive: -2.94%
14,N#C[C@@H]1[C@H](c2ccc(-c3ccccc3F)cc2)[C@H](CO)N1C(=O)C1CC1,inactive: -0.808% [at 21 µM]
15,COc1cc2c(cc1OC)CN(C(=O)CCOc1ccccc1C)CC2,inactive: -5.53% [at 10 µM]
16,COc1ccc(CNC(=O)C[C@H]2C(=O)N(Cc3ccccc3)C[C@@H]2Cc2ccccc2)cc1,inactive: -13.9%
17,CC(C)NC(=O)Nc1ccc2c(c1)C(=O)N([C@H](C)CO)C[C@H](C)[C@H](CN(C)CC1CC1)OCCCC[C@@H](C)O2,inactive: 4.87%
18,COc1ccc2c3c([nH]c2c1)[C@H](CO)N(C(=O)Nc1cccc(F)c1)CC31CN(S(=O)(=O)c2ccccc2)C1,inactive: -14%
19,Nc1ccc(-c2cc3ccccc3c(=O)o2)cc1,inactive: -10%
20,CC(C)(C)OC(=O)CNC(=O)c1[nH]cnc1C(=O)N[C@@H](Cc1ccccc1)C(=O)OC(C)(C)C,inactive: -7.2%
21,COc1cccc(N2CC(C(=O)Nc3ccc(F)cc3)CC2=O)c1 (stereo unspecified),inactive: 0.93%
22,Cc1cccc(C(=O)N2CCC(=O)N([C@H](COCc3ccc(Cl)cc3)Cc3ccccc3)CC2)c1,inactive: -2.82%
23,CCN1C(=NCCc2c[nH]c3ccccc23)N[C@@H](c2ccccc2)[C@H](C(=O)OC)[C@H]1C,inactive: -6.67%
24,CC1(c2ccc3ccccc3c2)CCC(=O)O1 (stereo unspecified),inactive: 13.5%
25,Cn1c(=O)c2nc(Cl)c(-c3ccccc3)nc2n(C)c1=O,inactive: 20.6%

# Structures shown so far that have a thiophene ring, fused or not (two):
row,Structure (SMILES),CPE protection (higher = active)
12,COc1ccc(NC(=O)C2CCC(CNS(=O)(=O)c3cccs3)CC2)cc1OC (stereo unspecified),inactive: 1.38%
13,COC(=O)Cc1ccc(OC2(C)CCN(Cc3csc4ccccc34)C2)cc1 (stereo unspecified),inactive: -2.94%
